For at least one compound, name, drawing or mass did not settle the structure.
System: IL-10(tm/tm) mouse aorta
Test: Force-tension myography, ACH dependent vasorelaxation of phenylephrine pre-constricted IL-10(tm/tm) aortic rings
Assay type: cell-based
Conditions: old IL-10 aortas; ACH >1 μM
Source text: Animals: Age-matched IL-10 deficient (IL-10(tm/tm)); B6.129P2IL10tm1Cgn/J and control mice (C576L6; WT) were obtained from Jackson Laboratories (Bar Harbor, Me., USA). IL-10(tm/tm) mice used are homozygous for the IL10tm1Cgn targeted mutation. These mice were housed in Association for Assessment and Accreditation of Laboratory Animal Care International accredited facilities and pathogen contact prevention (prophylaxis from infections, inflammatory bowel disease and early mortality) was achieved under specific pathogen-free (SPF) barrier conditions until terminal experiments were carried out. It is known that the pro-inflammatory potential achieved by the lack of IL-10 in this mouse model can be attributed to activation of TNF-α and IL-1β synthesis via IFN-γ, which is produced in massive amounts and also is important inantigen presentation and pathogen death via activation of macrophages. […]
Vascular endothelial function was assessed using force-tension myography. […] Vascular tension changes were determined as previously described (J Appl Physiol, 2000. 89(6): p. 2382-90). […] Relaxation responses were calculated as a percentage of tension following pre-constriction. […]
Vascular Studies. In ex vivo myograph experiments, measured tension represents a balance between vasorelaxant and vasoconstrictor dependent function and mediators. […]

CC(=O)OCC[N+](C)(C)C [ACH, Acetylcholine]
Response at higher doses of ACH: vasoconstriction was observed

Reference: patent US20130121961A1, “TREATMENT MODALITIES TO PREVENT OR TREAT LOSS OF CARDIOVASCULAR FUNCTION IN AGING HUMANS” (THE JOHNS HOPKINS UNIVERSITY, priority 2011, published 2013)
